This passage reports binding results from US20120231007A1, “MODULATORS OF CELL CYCLE PROGRESSION” (SINGAPORE HEALTH SERVICES PTE. LTD., priority 2009, published 2012).

Chains of the proteins cited; added tags and fusions are not shown. Residues count along the entry.
UniProt P61586, residues 1-190: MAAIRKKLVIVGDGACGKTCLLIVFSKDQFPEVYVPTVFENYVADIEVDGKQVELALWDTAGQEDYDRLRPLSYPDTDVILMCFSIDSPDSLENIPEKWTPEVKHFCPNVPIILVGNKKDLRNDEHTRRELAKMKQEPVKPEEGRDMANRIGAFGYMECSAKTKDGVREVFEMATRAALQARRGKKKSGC

No constants are given. Whether binding was seen depends on the method and setting. Binding seen in cells or lysates may run through a third protein. Some binding calls cover weakened binding; strength is not graded here.

In experiment [1] the target is activated RhoA (human) (UniProt P61586). The experiment can be described thus: Rhotekin RBD pull-down from glioma cell lysate, immunoblot (summary of the study).
The target is the same in experiment [2]. The experiment can be described thus: Rhotekin RBD pull-down from glioma cell lysate, immunoblot for Ect2 and RhoA.

B1: Epithelial cell transforming sequence 2 (Ect2), full-length human (protein)
chain: AENSVLTSTTGRTSLADSSIFDSKVTEISKENLLIGSTSYVEEEMPQIETRVILVQEAGKQEELIKALKDIKVGFVKMESVEEFEGLDSPEFENVFVVTDFQDSVFNDLYKADCRVIGPPVVLNCSQKGEPLPFSCRPLYCTSMMNLVLCFTGFRKKEELVRLVTLVHHMGGVIRKDFNSKVTHLVANCTQGEKFRVAVSLGTPIMKPEWIYKAWERRNEQDFYAAVDDFRNEFKVPPFQDCILSFLGFSDEEKTNMEEMTEMQGGKYLPLGDERCTHLVVEENIVKDLPFEPSKKLYVVKQEWFWGSIQMDARAGETMYLYEKANTPELKKSVSMLSLNTPNSNRKRRRLKETLAQLSRETDVSPFPPRKRPSAEHSLSIGSLLDISNTPESSINYGDTPKSCTKSSKSSTPVPSKQSARWQVAKELYQTESNYVNILATIIQLFQVPLEEEGQRGGPILAPEEIKTIFGSIPDIFDVHTKIKDDLEDLIVNWDESKSIGDIFLKYSKDLVKTYPPFVNFFEMSKETIIKCEKQKPRFHAFLKINQAKPECGRQSLVELLIRPVQRLPSVALLLNDLKKHTADENPDKSTLEKAIGSLKEVMTHINEDKRKTEAQKQIFDVVYEVDGCPANLLSSHRSLVQRVETISLGEHPCDRGEQVTLFLFNDCLEIARKRHKVIGTFRSPHGQTRPPASLKHIHLMPLSQIKKVLDIRETEDCHNAFALLVRPPTEQANVLLSFQMTSDELPKENWLKMLCRHVANTICKADAENLIYTADPESFEVNTKDMDSTLSRASRAIKKTSKKVTRAFSFSKTPKRALRRALMTSHGSVEGRSPSSNDKHVMSRLSSTSSLAGIPSPSLVSLPSFFERRSHTLSRSTTHLI
Take B1: the binding entry in experiment [1] and in experiment [2] was “binds” throughout.
